PubChem BioAssay AID1224828, NIAID | 2016
This is an unselected part of about 17,000 reagents tested. Of all reagents, 762 (4.5%) were called active. 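Active calls include both raised and lowered p65 entry, mostly lowered; wells with fewer than 50 cells lack a z-score.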 Raw values are not corrected between plates.

Purpose: 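Regulators linking TLR4 signalling to p65 nuclear translocation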 (primary screen)
Cell system: mouse RAW264.7 G9 macrophage reporter cells (GFP-p65, Tnf promoter-mCherry)
Reagent: siRNA pool against mouse genes, 100 nM
Time to read-out: 2 days siRNA transfection, then 40 min LPS before fixation
Challenge: LPS (Salmonella minnesota R595) at 10 ng/ml
Detection: 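Microscopy ratio of nuclear to perinuclear-ring GFP-p65 signal, scaled to the plate median; gene score is the average of two replicate robust z-scores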
Direction: p65 translocation robust z-score: higher = more nuclear NF-kappaB p65 after LPS than the plate median; nuclear/cytoplasmic p65 ratio: higher = more nuclear NF-kappaB p65
Rule for the call: 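Active if robust z is above 3.3 (negative regulators) or below -1.56, the Tlr4 control median (positive regulators); activity score 50 or more; control wells not called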
Meaning of the calls: active = hit (p65 shift raised or lowered); inactive = no clear change

Target gene	p65 translocation robust z-score	nuclear/cytoplasmic p65 ratio, rep 1	nuclear/cytoplasmic p65 ratio, rep 2	low cell count flag	activity call
Zfp239		1.34	1.01	fewer than 50 cells per well; well left out of scoring	inactive
Msh6	0.02	1.45	1.34	enough cells to score	inactive
Col5a3	-0.87	1.39	1.23	enough cells to score	inactive
B3gat2	2.71	1.9	1.99	enough cells to score	inactive
Abhd14a	1.42	1.15	1.54	enough cells to score	inactive
Tex10	-1	1.19	1.13	enough cells to score	inactive
Or2y1f	-1.23	1.48	1.22	enough cells to score	inactive
Dnttip2	-0.08	1.25	1.02	enough cells to score	inactive
Trim11		1.25	1.2	fewer than 50 cells per well; well left out of scoring	inactive
Gnb2	-0.33	1.78	1.51	enough cells to score	inactive
Pax8	-0.44	1.44	1.31	enough cells to score	inactive
Slmap		1.81	1.4	fewer than 50 cells per well; well left out of scoring	inactive
Ifih1	-0.26	1.44	1.46	enough cells to score	inactive
Polrmt		1.44	1.27	fewer than 50 cells per well; well left out of scoring	inactive
Tgif1	-0.71	1.36	1.47	enough cells to score	inactive
Rin2	-0.5	1.28	1.22	enough cells to score	inactive
Nop16	-0.41	1.53	1.69	enough cells to score	inactive
Onecut3		1.54	0.972	fewer than 50 cells per well; well left out of scoring	inactive
Zfp692	-0.47	1.52	1.63	enough cells to score	inactive
Ccnh	-0.36	1.49	1.33	enough cells to score	inactive
Smim3		1.06	0.862	fewer than 50 cells per well; well left out of scoring	inactive
Prpf38b		1.46	1.22	fewer than 50 cells per well; well left out of scoring	inactive
Golt1b	-0.42	1.3	1.83	enough cells to score	inactive
Sel1l	-0.39	1.49	1.5	enough cells to score	inactive
Plekhf2	0.8	1.41	1.37	enough cells to score	inactive
Xpnpep3	0.72	1.6	1.43	enough cells to score	inactive
Or4a15		1.43	1.46	fewer than 50 cells per well; well left out of scoring	inactive
Aldh3a1	-0.94	1.49	1.46	enough cells to score	inactive
Ifna16	-1.49	1.22	1.22	enough cells to score	inactive
Clk4	-0.14	1.59	1.43	enough cells to score	inactive
Nol12	-0.49	1.47	1.75	enough cells to score	inactive
Dock2	-1.21	1.33	1.21	enough cells to score	inactive
1700082M22Rik		1.43	1.47	fewer than 50 cells per well; well left out of scoring	inactive
Wdr19	0.16	1.55	1.61	enough cells to score	inactive
St8sia3		1.61	1.25	fewer than 50 cells per well; well left out of scoring	inactive
Vmn1r200	-0.09	1.37	1.23	enough cells to score	inactive
Dcc	0.64	1.48	1.52	enough cells to score	inactive
Tspan13	-0.46	1.32	1.14	enough cells to score	inactive
Mapre2	-0.44	1.39	1.29	enough cells to score	inactive
Bmpr1b	-0.92	1.59	1.23	enough cells to score	inactive
Acsm5	0	1.64	1.73	enough cells to score	inactive
Tradd	0.83	1.58	1.66	enough cells to score	inactive
Ido1	-2.19	1.24	1.13	enough cells to score	active
Gramd1a		1.16	1.4	fewer than 50 cells per well; well left out of scoring	inactive
Hoxd8	-0.58	1.33	1.32	enough cells to score	inactive
Tfap2a	0.12	1.54	1.53	enough cells to score	inactive
Sox17	0.94	1.56	1.32	enough cells to score	inactive
Prkag3	-0.78	1.66	1.28	enough cells to score	inactive
Ptx3	-0.24	1.35	1.15	enough cells to score	inactive
Ccn5	0.11	1.58	1.57	enough cells to score	inactive
Mt1	0.48	1.87	1.66	enough cells to score	inactive
Tafa1	0.66	1.55	1.58	enough cells to score	inactive
Ttc28	2.43	1.97	2.06	enough cells to score	inactive
Mphosph10	1.15	1.9	1.83	enough cells to score	inactive
Calm4	-0.78	1.47	1.52	enough cells to score	inactive
Zfp954	1	1.51	1.58	enough cells to score	inactive
Cfap97		1.36	1.46	fewer than 50 cells per well; well left out of scoring	inactive
Jagn1	0.66	1.45	1.55	enough cells to score	inactive
9930014A18Rik	0.14	1.39	1.63	enough cells to score	inactive
